Data on 73 compounds can be found in the supplement of paper PMC9938546.

Where a name gives a salt, the structure may show the parent alone. Some of the results follow. Baselines shift from plate to plate; read single values as rough.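 HCT116-GFP, a KRAS-mutant, microsatellite-unstable human colorectal cancer line, constantly expresses green fluorescent protein; immune cells were from healthy donors. Cancer cell survival was tracked by live-cell imaging of green fluorescence, and activated immune cells by themselves reduced survival to roughly half.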

The assay deals with HCT116-GFP. Put plainly: HCT116-GFP viability (GFP intensity) relative to untreated HCT116-GFP monoculture control, co-culture with activated PBMCs; higher = less cancer cell killing. As to conditions: culture: co-culture with anti-CD3/IL2 activated PBMCs 1:1; 10 µM; 72 h.
For `CC(C)NC[C@@H](O)COc1cccc2ccccc12` [(R)-Propranolol hydrochloride], the HCT116-GFP viability amounted to 61.2%.
Then `CNCC(O)c1ccc(OC(=O)C(C)(C)C)c(OC(=O)C(C)(C)C)c1` (stereo not drawn) [Dipivefrin hydrochloride], with 70.8%; and `CC(C)NCC(O)c1ccc(O)c(O)c1` (single isomer, unassigned; (+)) [(+)-Isoproterenol (+)-bitartrate salt], with 75.3%; and `CCN(CC)CCc1nc(-c2ccccc2)no1` [Oxalamine citrate salt], with 79%.
The compound `Cc1c(N(C)CS(=O)(=O)O)c(=O)n(-c2ccccc2)n1C` [Dipyrone] had an HCT116-GFP viability of 70.5%.
For `CC(NCCC(c1ccccc1)c1ccccc1)c1ccccc1` (stereo not drawn) [Fendiline hydrochloride], the HCT116-GFP viability came to 41.2%.
In the case of `O=c1[nH]c(=O)n(C2CCCO2)cc1F` (stereo not drawn) [Tegafur] it was 7.7%.
In turn, `COc1c2occc2c(OC)c2c(=O)cc(C)oc12` [Khellin] yielded an HCT116-GFP viability of 45.5%.
Then `CC[C@H](C)C(=O)O[C@H]1CCC=C2C=C[C@H](C)[C@H](CC[C@@H]3C[C@@H](O)CC(=O)O3)[C@H]21` [Mevastatin], with 11.1%; and `Nc1cc(C(Cl)=C(Cl)Cl)c(S(N)(=O)=O)cc1S(N)(=O)=O` [Clorsulon], with 56%.
In the case of `CN1CCN(c2c(F)cc3c(=O)c(C(=O)O)cn(CCF)c3c2F)CC1` [Fleroxacin] it was 58.9%; in that of `C[C@H](CCC(=O)O)[C@H]1CC[C@H]2[C@@H]3[C@H](O)C[C@@H]4C[C@H](O)CC[C@]4(C)[C@H]3CC[C@]12C` [Chenodiol], 49.6%.
With `CC(=O)OCC(CCn1cnc2cnc(N)nc21)COC(C)=O` [Famciclovir], the HCT116-GFP viability was 51.2%.
In the case of `NNc1nncc2ccccc12` [Hydralazine hydrochloride] it was 33.4%; in that of `Cc1nc(=O)c2cc(CN(C)c3ccc(C(=O)N[C@@H](CCC(=O)O)C(=O)O)s3)ccc2[nH]1` [Raltitrexed], 23.5%.
With `CN1CCN(CCCN2c3ccccc3Sc3ccc(Cl)cc32)CC1` [Prochlorperazine dimaleate], the HCT116-GFP viability was determined as 48.7%.
Then `O=c1oc2ccccc2c(O)c1Cc1c(O)c2ccccc2oc1=O` [Dicumarol], with 69.1%; and `COc1ccc(C2CNC(=O)C2)cc1OC1CCCC1` (stereo not drawn) [Rolipram], with 74.5%.
In the case of `O=S(=O)(O)c1cc(O)ccc1O` [Ethamsylate] it was 48.8%; in that of `CCC(=O)O[C@]1(C(=O)CCl)[C@@H](C)C[C@H]2[C@@H]3CCC4=CC(=O)C=C[C@]4(C)[C@@]3(F)[C@@H](O)C[C@@]21C` [Clobetasol propionate], 80.2%.
Turning to `c1ccc([C@H]2CN3CCSC3=N2)cc1` [Levamisole hydrochloride], the HCT116-GFP viability is 39.7%.
Compound `O=C1OCCN1/N=C/c1ccc([N+](=O)[O-])o1` [Furazolidone] returned an HCT116-GFP viability of 61.3%.
In the case of `Nc1nc2n[nH]nc2c(=O)[nH]1` [Azaguanine-8] it was 40%; in that of `CN(C)c1nc(N(C)C)nc(N(C)C)n1` [Altretamine], 70.1%.
Then `CC(C)NCC(O)c1ccc2ccccc2c1` (stereo not drawn) [Pronethalol hydrochloride], with 52.2%; and `C[C@H]1C[C@@H]2[C@H]([C@@H](O)C[C@@]3(C)[C@H]2CC[C@]3(O)C(=O)CO)[C@@]2(C)C=CC(=O)C=C12` [Methylprednisolone, 6-alpha], with 73.9%.
The compound `CCCNCC(O)COc1ccccc1C(=O)CCc1ccccc1` (stereo not drawn) [Propafenone hydrochloride] came in with an HCT116-GFP viability of 66.4%.
In the case of `NC(=O)C(c1ccccc1)(c1ccccc1)[C@@H]1CCN(CCc2ccc3c(c2)CCO3)C1` [Darifenacin hydrobromide] it was 48.1%; in that of `COc1cc([C@@H]2c3cc4c(cc3[C@@H](O[C@@H]3O[C@@H]5CO[C@@H](C)O[C@H]5[C@H](O)[C@H]3O)[C@H]3COC(=O)[C@H]23)OCO4)cc(OC)c1O` [Etoposide], 14.5%.
Then `COc1ccccc1OCC(O)CN1CCN(CC(=O)Nc2c(C)cccc2C)CC1` (stereo not drawn) [Ranolazine], with 37.9%.
In the case of `CC[C@H]1OC(=O)[C@H](C)[C@@H](O[C@H]2C[C@@](C)(OC)[C@@H](O)[C@H](C)O2)[C@H](C)[C@@H](O[C@@H]2O[C@H](C)C[C@H](N(C)C)[C@H]2O)[C@](C)(O)C[C@@H](C)[C@@H]2N[C@@H](COCCOC)O[C@H]([C@H]2C)[C@]1(C)O` [Dirithromycin] it was 49.6%.
`O=C1CC2(CCCC2)CC(=O)N1CCCCN1CCN(c2ncccn2)CC1` [Buspirone hydrochloride] returned an HCT116-GFP viability of 36.3%.
Then `C[C@H](O)C(=O)Nc1c(I)c(C(=O)NC(CO)CO)c(I)c(C(=O)NC(CO)CO)c1I` [Iopamidol], with 61.1%.
Then `CC(C)CC(=O)N[C@H](C(=O)N[C@H](C(=O)N[C@@H](CC(C)C)[C@@H](O)CC(=O)N[C@@H](C)C(=O)N[C@@H](CC(C)C)[C@@H](O)CC(=O)O)C(C)C)C(C)C` [Pepstatin A], with 47.4%.
In the case of `Nc1ccc(S(=O)(=O)Nc2ccnn2-c2ccccc2)cc1` [Sulfaphenazole] it was 38.2%.
Compound `CO/N=C(\C(=O)N[C@@H]1C(=O)N2C(C(=O)O)=C(COC(N)=O)CS[C@H]12)c1ccco1` [Cefuroxime sodium salt] showed an HCT116-GFP viability of 68.7%.
Consider `O=C(NCC(O)CO)c1c(I)c(C(=O)NCC(O)CO)c(I)c(N(CCO)C(=O)CO)c1I` (stereo not drawn) [Ioversol], for which the HCT116-GFP viability amounted to 62.7%.
Then `CC1Cc2ccccc2N1NC(=O)c1ccc(Cl)c(S(N)(=O)=O)c1` (stereo not drawn) [Indapamide], with 59.7%; and `Cc1cc(CC(=O)O)n(C)c1C(=O)c1ccc(Cl)cc1` [Zomepirac sodium salt], with 69.6%; and `O=C(O)COC(=O)Cc1ccccc1Nc1c(Cl)cccc1Cl` [Aceclofenac], with 21.8%.
Then `Cc1cnc(NC(=O)C2=C(O)c3ccccc3S(=O)(=O)N2C)s1` [Meloxicam], with 52.3%; and `CC1CC(OC(=O)C(O)c2ccccc2)CC(C)(C)N1C` (stereo not drawn) [Eucatropine hydrochloride], with 68.8%; and `Cc1nnc(NS(=O)(=O)c2ccc(N)cc2)s1` [Sulfamethizole], with 86.7%.
In turn, `CCN1CCN(c2cc3c(cc2F)c(=O)c(C(=O)O)cn3C2CC2)CC1` [Enrofloxacin] displayed an HCT116-GFP viability of 47.3%.
Regarding `CCN1CCC[C@H]1CNC(=O)c1c(OC)ccc(Br)c1OC` [Remoxipride Hydrochloride], the HCT116-GFP viability is 35.3%.
In turn, `Oc1ccc(OCc2ccccc2)cc1` [Monobenzone] gave an HCT116-GFP viability of 64.6%.
In the case of `C[C@H]1C[C@H]2[C@@H]3CCC4=CC(=O)C=C[C@]4(C)[C@@]3(F)[C@@H](O)C[C@]2(C)[C@@]1(O)C(=O)CO` [Betamethasone] it was 74.7%; in that of `CN(C)CCOc1ccc(/C(=C(/CCCl)c2ccccc2)c2ccccc2)cc1` [Toremifene], 60.1%.
Then `CCN1CCN(C(=O)N[C@@H](C(=O)N[C@@H]2C(=O)N3C(C(=O)O)=C(CSc4nnnn4C)CS[C@H]23)c2ccc(O)cc2)C(=O)C1=O` [Cefoperazone dihydrate], with 46.5%; and `C=C1/C(=C\C=C2/CCC[C@]3(C)[C@@H]([C@H](C)/C=C/[C@@H](O)C4CC4)CC[C@@H]23)C[C@@H](O)C[C@@H]1O` [Calcipotriene], with 51.5%; and `Cc1ccc(Cl)c(Nc2ccccc2C(=O)O)c1Cl` [Meclofenamic acid sodium salt monohydrate], with 33.2%.
In the case of `O=C(NCCO[N+](=O)[O-])c1cccnc1` [Nicorandil], the HCT116-GFP viability stood at 39.6%.
The compound `COC(=O)Nc1nc2ccc(SC(C)C)cc2[nH]1` [Methiazole] had an HCT116-GFP viability of 4.23%.
The compound `CC1=Nc2ccc(Cl)cc2S(=O)(=O)N1` [Diazoxide] registered an HCT116-GFP viability of 36.5%.
The compound `CC(C(=O)O)c1ccc(N2Cc3ccccc3C2=O)cc1` (stereo not drawn) [Indoprofen] came in with an HCT116-GFP viability of 64.4%.
On to `CCn1nc(C(=O)O)c(=O)c2cc3c(cc21)OCO3` [Cinoxacin], for which the HCT116-GFP viability amounted to 80.4%.
In the case of `Cc1cc(/C=C/c2ccc3cc(N(C)C)ccc3[n+]2C)c(C)n1-c1ccccc1` [Pyrvinium pamoate] it was 54.7%; in that of `CCCCNc1ccc(C(=O)OCCOCCOCCOCCOCCOCCOCCOCCOCCOC)cc1` [Benzonatate], 51.6%; in that of `COCCOC(=O)C1=C(C)NC(C)=C(C(=O)OC/C=C/c2ccccc2)C1c1cccc([N+](=O)[O-])c1` (stereo not drawn) [Cilnidipine], 28.7%.
For `O=C(O)/C=C/c1ccc(Cn2ccnc2)cc1` [Ozagrel hydrochloride], the HCT116-GFP viability was 47.3%.
For `CCCc1nc(C)c2c(=O)nc(-c3cc(S(=O)(=O)N4CCN(CC)CC4)ccc3OCC)[nH]n12` [Vardenafil], the HCT116-GFP viability worked out at 40%.
In the case of `CCCNC(C)C(=O)Nc1ccccc1C` (stereo not drawn) [Prilocaine hydrochloride], the HCT116-GFP viability worked out at 37.8%.
Compound `COc1ccc(CN(CCN(C)C)c2ccccn2)cc1` [Pyrilamine maleate] gave an HCT116-GFP viability of 56.3%.
In the case of `CC(COc1ccccc1)N(CCCl)Cc1ccccc1` (stereo not drawn) [Phenoxybenzamine hydrochloride] it was 66.8%; in that of `CCCCC[C@H](O)/C=C/[C@@H]1[C@@H](C/C=C\CCCC(=O)O)[C@@H](O)C[C@H]1O` [Dinoprost trometamol], 61.8%; in that of `CC(=O)c1ccc(S(=O)(=O)NC(=O)NC2CCCCC2)cc1` [Acetohexamide], 42%.
Then `CCCN[C@H]1CCc2nc(N)sc2C1` [Pramipexole dihydrochloride], with 42.4%; and `CCOC(=O)c1ccc(OC(=O)CCCCCNC(=N)N)cc1` [Gabexate mesilate], with 34.3%; and `Cc1cc(=O)oc2cc(O)ccc12` [Hymecromone], with 66.2%.
In the case of `Cn1c(=O)c2nc[nH]c2n(C)c1=O` [Theophylline monohydrate] it was 63.1%.
In turn, `c1ccc(C2CN3CCSC3=N2)cc1` (stereo not drawn) [Tetramisole hydrochloride] yielded an HCT116-GFP viability of 41.7%.
In turn, `C=C1c2cccc(O)c2C(=O)C2=C(O)[C@]3(O)C(=O)C(C(N)=O)=C(O)[C@@H](N(C)C)[C@@H]3[C@@H](O)[C@H]12` [Methacycline hydrochloride] had an HCT116-GFP viability of 50.7%.
`Cc1scc2c1N(C(=O)CN1CCN(C)CC1)c1ccccc1NC2=O` [Telenzepine dihydrochloride] had an HCT116-GFP viability of 36.3%.
